Source: patent US20240026032A1 (Alexion, published 2024)
No constants are given. Whether binding was seen depends on the method and setting. Some results given as binding are weak or reduced against the parent protein; the word gives no strength.

Columns and labels:
[1] = target: T1, Human DLAT recombinant protein (ProSpec, Catalog # ENZ-082) (human) (UniProt P10515); assay: BIAcore, AntiMouse_TPP1003_DLAT (Prospec)
T1 sequence (looked up): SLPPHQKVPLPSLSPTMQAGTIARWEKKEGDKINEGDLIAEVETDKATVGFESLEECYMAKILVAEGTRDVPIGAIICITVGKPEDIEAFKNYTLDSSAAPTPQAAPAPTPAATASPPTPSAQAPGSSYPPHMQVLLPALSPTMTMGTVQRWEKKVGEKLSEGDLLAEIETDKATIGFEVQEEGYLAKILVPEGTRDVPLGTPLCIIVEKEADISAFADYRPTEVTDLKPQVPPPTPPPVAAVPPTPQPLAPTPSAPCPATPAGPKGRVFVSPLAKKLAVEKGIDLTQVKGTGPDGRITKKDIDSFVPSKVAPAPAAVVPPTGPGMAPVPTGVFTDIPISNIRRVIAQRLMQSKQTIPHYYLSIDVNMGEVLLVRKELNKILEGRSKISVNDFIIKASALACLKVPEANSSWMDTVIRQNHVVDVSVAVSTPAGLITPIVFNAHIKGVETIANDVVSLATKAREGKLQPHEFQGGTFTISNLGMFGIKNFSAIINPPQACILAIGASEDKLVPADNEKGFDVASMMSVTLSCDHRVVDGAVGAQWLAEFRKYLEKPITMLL

[2] = target: T1, Human DLAT recombinant protein (ProSpec, Catalog # ENZ-082) (human); assay: BLI, antibody on anti-mouse IgG1 Fc tips, DLAT 200 nM to 2.5 nM
[3] = target: T1, Human DLAT recombinant protein (ProSpec, Catalog # ENZ-082) (human); assay: BLI (Octet Red), TPP-1003 loaded on anti-mouse IgG1 Fc tips, DLAT in PBS as analyte
[4] = target: T1, Human DLAT recombinant protein (ProSpec, Catalog # ENZ-082) (human); assay: BIAcore (SPR) kinetics
[5] = target: T1, Human DLAT recombinant protein (ProSpec, Catalog # ENZ-082) (human); assay: BLI (Octet Red), TPP-1005 loaded on anti-mouse IgG1 Fc tips, DLAT in PBS as analyte
[6] = target: T1, Human DLAT recombinant protein (ProSpec, Catalog # ENZ-082) (human); assay: BIAcore, AntiMouse_TPP1005_DLAT (Prospec)

Measured: binding

B1: TPP-1003 (mIgG1 PD2 Ab) (antibody, V domains shown)
VH: EVQLVESGGGLVKPGGSLRLSCAASGFTFGSYSMTWVRQAPGKGLEWVSFISTVSTYIYYPDSVKGRFTISRDNAKNSLYLQMNSLRAEDTAVYYCARVSGRGSAARDGEKGTYYYYMDVWGKGTTVTVSS
VL: SSELTQDPAVSVALGQTVTITCQGDSLRSYYASWYQQKPGQAPVLVIFGKNNRPSGIPDRFSGSRSGNTASLTITGAQAEDEADYFCDSRDSSANHWVFGGGTKLTVLQ
notes: also called mouse IgG1 chimera anti-DLAT antibody PD2
binds: [1] | [2] | [3] | [4]

B2: TPP-1005 (mIgG1 DWZ Ab) (antibody, V domains shown)
VH: EVQLLESGGDVVQPGGSLRLSCVASGFTLTNYVTAWVRRRPGKGLEWISGMTHGAVATYYSDSVRGRFSSSRDTSRSTLYLQMNDLTVEDTAIYYCAKSLHRSGTSLSYWGQGTLVTVSS
VL: QSVLTQPPSASGTPGQNINISCSGTTSNIGGSNVDWYQHVPGTAPKLFIHSNNQRPSGVPARFSASKSGTSASLAISGLQSEDEADYYCATWDVRLLAYVFGSATEVTVLR
notes: also called murine IgG1 DWZ
binds: [2] | [5] | [4] | [6]
